According to patent US20160029630A1 (priority 2012, published 2016):
Some entries share one result that the patent states for a list of compounds.

Key:
Assay type in all cases: cell-based
Settings in all cases: 31 ppm; measured at 405 nm 7 days after inoculation; relative to active compound-free control (100%)
Botrytis cinerea = test: Activity against the grey mold Botrytis cinerea in the microtiterplate test (Botrci)
Septoria tritici = test: Activity against leaf blotch on wheat caused by Septoria tritici (Septtr), microtiter plate test
Pyricularia oryzae = test system: Pyricularia oryzae

SMILES | growth (relative growth in % of the pathogen) (Botrytis cinerea) [%] | growth (relative growth in % of the pathogen) (Septoria tritici) [%] | growth (relative growth in % of the pathogen) (Pyricularia oryzae) [%]
CC(C)C(O)(Cn1cncn1)c1ccc(Oc2ccc(F)cc2F)cc1 (stereo not drawn) [Compound I-14] | ≤ 12 | ≤ 14 | ≤ 11
CC(O)(Cn1cncn1)c1ccc(Oc2ccccc2Cl)cc1 (stereo not drawn) [Compound I-5] | ≤ 12 | ≤ 14 | ≤ 11
CC(C)C(O)(Cn1cncn1)c1ccc(Oc2ccc(C#N)cc2)cc1 (stereo not drawn) [Compound I-1] | ≤ 12 | ≤ 14 | –
COC(C)(Cn1cncn1)c1ccc(Oc2ccc(C#N)cc2)cc1 (stereo not drawn) [Compound I-16] | – | ≤ 14 | ≤ 11
COc1ccc(Oc2ccc(C(O)(Cn3cncn3)C(C)C)cc2)cc1 (stereo not drawn) [Compound I-10] | ≤ 12 | ≤ 14 | ≤ 11
CC(C)C(O)(Cn1cncn1)c1ccc(Oc2ccccc2Cl)cc1 (stereo not drawn) [Compound I-11] | ≤ 12 | ≤ 14 | ≤ 11
CC(O)(Cn1cncn1)c1ccc(Oc2ccc(Cl)cc2F)cc1 (stereo not drawn) [Compound I-9] | ≤ 12 | ≤ 14 | ≤ 11
CC(O)(Cn1cncn1)c1ccc(Oc2ccc(F)cc2F)cc1 (stereo not drawn) [Compound I-8] | – | ≤ 14 | –
CC(O)(Cn1cncn1)c1ccc(Oc2ccc(Cl)c(Cl)c2)cc1 (stereo not drawn) [Compound I-7] | ≤ 12 | ≤ 14 | –
Cc1ccc(Oc2ccc(C(O)(Cn3cncn3)C(C)C)cc2)cc1 (stereo not drawn) [Compound I-2] | ≤ 12 | ≤ 14 | ≤ 11
CC(C)C(O)(Cn1cncn1)c1ccc(Oc2cccc(Cl)c2)cc1 (stereo not drawn) [Compound I-12, 2-[4-(3-chlorophenoxy)phenyl]-3-methyl-1-(1,2,4-triazol-1-yl)butan-2-ol] | ≤ 12 | ≤ 14 | ≤ 11
CC(C)C(O)(Cn1cncn1)c1ccc(Oc2ccc(Cl)cc2F)cc1 (stereo not drawn) [Compound I-15] | ≤ 12 | ≤ 14 | ≤ 11
CC(O)(Cn1cncn1)c1ccc(Oc2cccc(Cl)c2)cc1 (stereo not drawn) [Compound I-6] | ≤ 12 | ≤ 14 | –
COC(Cn1cncn1)(c1ccc(Oc2ccccc2Cl)cc1)C(C)C (stereo not drawn) [Compound I-17] | ≤ 12 | ≤ 14 | ≤ 11
Cc1ccc(Oc2ccc(C(C)(O)Cn3cncn3)cc2)cc1 (stereo not drawn) [Compound I-4] | ≤ 12 | ≤ 14 | ≤ 11
CC(C)C(O)(Cn1cncn1)c1ccc(Oc2ccc(Cl)c(Cl)c2)cc1 (stereo not drawn) [Compound I-13] | ≤ 12 | ≤ 14 | ≤ 11
